Source: US8367659B2, “Oxazinyl isoflavonoid compounds, medicaments and use” (Marshall Edwards, Inc., priority 2007, dated 2013)
At least one compound was matched to its structure with a doubt left.

What was measured:
VCAM = assay: TNFα-induced VCAM expression in human arterial endothelial cells (ELISA); type: cell-based; conditions: HAEC; 10 μM found most appropriate for comparing
Method: Inhibition of TNFα-stimulated endothelial cell activation by compounds was assessed by measuring surface expression of cell adhesion molecules with an ELISA method. Human arterial endothelial cells (HAEC) in growth medium (Cell Applications Inc.) were seeded into 96-well plates at a density of 10,000 cells per well. Plates were incubated overnight at 37° C. in a humidified incubator to allow for cells to become confluent. On the morning of the experiment, TNFα (10 μl, 2 ng/ml) was added to each well, which contained 100 μl of medium. Compounds were diluted in DMSO-containing medium (2.5% DMSO) to give a compound concentration of 100 and 300 μM. Compounds were added to wells so that final concentrations were 10 and 30 μM. DMSO-containing medium alone was added to zero concentration control wells. All samples were measured in quadruplicate (4 wells per treatment).
After incubation with compound, medium was removed and cells were probed with either non-specific IgG or specific mouse antibodies against E-selectin, ICAM or VCAM (BD Biosciences—0.1 μg in 100 μL buffered saline with 10% heat-inactivated human serum). Adhesion molecule expression was detected by addition of sheep anti-mouse antibody/horseradish peroxidase conjugate. […] Optical density was measured at 405 nm with an ELISA reader (Titertek Multiscan, Flow Laboratories). […]

[1] = test system: human umbilical vein smooth muscle cells (HUVSMC); assay: Proliferation of human umbilical vein smooth muscle cells (MTT); type: cell-based
Method: The effect of test compounds on human umbilical vein smooth muscle cells (HUVSMC) was examined. Cells were seeded into 96 well plates at a low seeding rate of 1.6×10^3 cells per well, and allowed to attach for 24 hours. The cells were then washed twice with medium without FCS and incubated in medium without FCS for 20 hours to serum starve them. Analogue was prepared in medium without FCS at 20 μM and added to the plates and incubated for one hour. Final analogue concentration was therefore 10 μM. The cells were then stimulated by adding medium +20% FCS, to give a final FCS concentration of 10%. The cells were incubated until the control cells i.e. those with FCS and no compound, were just confluent (5 days). An MTT assay was performed, and difference in absorbance in analogue treated cells from the control was calculated using the formula: test/control*100−100. Results
The effect of test compounds on human umbilical vein smooth muscle cells (HUVSMC), was examined. Cells, tissue explants from a neonate (HRI—passage 2), were seeded into 96 well plates at 1×10^3 cells per well, and allowed to attach for 24 hours. They were then washed twice and incubated in medium without foetal calf serum (FCS) for 24-48 hours to serum-starve them. Test compounds were prepared in medium without FCS and added to the plates and incubated for one hour. […]

Question: What does the source list for Oc1ccc(C2=Cc3cc4c(cc3OC2)OCN(Cc2ccccc2)C4)cc1 [Compound 1, 4-(3-Benzyl-2,3,4,8-tetrahydrochromeno[6,7-e][1,3]oxazin-7-yl)phenol]?
Answer: effect on TNFα-induced VCAM expression (VCAM): markedly inhibited; effect on proliferation of HUVSMCs induced by FCS ([1]; 10 μM, 10% FCS, 5 days, FIG. 8): significantly inhibited the proliferation; inhibiting the proliferation of HUVSMC, comparison ([1]; FIG. 15): more effective than either 37-DHE or genistein
